PubChem BioAssay AID1224830 – NIAID – 2016
Purpose: 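Host factors that control LPS-induced TNF expression in human macrophages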 (primary screen). Cell system: human THP-1 monocytic leukaemia cells, TNF dual-luciferase reporter clone, PMA-differentiated to macrophage-like cells. Knock-down reagent: siRNA pool against human genes, 50 nM. Time to read-out: LPS for 4 h, given about 3 days after siRNA transfection. Challenge: bacterial LPS (TLR4 ligand), 10 ng/ml. Measured: 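Ratio of firefly to renilla light, scaled to the plate median and expressed as a robust z-score per replicate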. Direction: TNF reporter robust z-score: higher = stronger TNF reporter response to LPS. Hit rule: 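a well is active when its z-score exceeds 2.8 or falls below -1.5; control wells carry no call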.
This is an unselected part of about 18,000 reagents tested. In the full data, about 2,900 (16%) were called active. 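Calls are made per well; low scores hint the gene aids the LPS response, high scores that it dampens it.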 Repeated entries: four replicate wells of each siRNA pool. No sequences are given here.

target | PubChem SID | TNF reporter robust z-score | Outcome
METTL4 (methyltransferase 4, N6-adenosine) | SID315459033 | 0.93 | inactive
METTL4 (methyltransferase 4, N6-adenosine) | SID315459033 | 0.79 | inactive
METTL4 (methyltransferase 4, N6-adenosine) | SID315459033 | -0.89 | inactive
METTL4 (methyltransferase 4, N6-adenosine) | SID315459033 | -0.68 | inactive
MICOS13 | SID315461673 | -1.69 | active
MICOS13 | SID315461673 | -1.87 | active
MICOS13 | SID315461673 | -2.12 | active
IDE (insulin degrading enzyme) | SID315449390 | 0.32 | inactive
IDE (insulin degrading enzyme) | SID315449390 | 0.39 | inactive
IDE (insulin degrading enzyme) | SID315449390 | -0.57 | inactive
IDE (insulin degrading enzyme) | SID315449390 | -0.06 | inactive
COPS9 (COP9 signalosome subunit 9) | SID315462461 | 1.55 | inactive
COPS9 (COP9 signalosome subunit 9) | SID315462461 | 2.59 | inactive
COPS9 (COP9 signalosome subunit 9) | SID315462461 | 2.79 | inactive
COPS9 (COP9 signalosome subunit 9) | SID315462461 | 2.23 | inactive
NCF2 (neutrophil cytosolic factor 2) | SID315450159 | -0.58 | inactive
NCF2 (neutrophil cytosolic factor 2) | SID315450159 | 0.43 | inactive
NCF2 (neutrophil cytosolic factor 2) | SID315450159 | -0.25 | inactive
NCF2 (neutrophil cytosolic factor 2) | SID315450159 | 0.89 | inactive
TPCN1 (two pore segment channel 1) | SID315456918 | -1.68 | active
TPCN1 (two pore segment channel 1) | SID315456918 | -0.21 | inactive
TPCN1 (two pore segment channel 1) | SID315456918 | -0.46 | inactive
TPCN1 (two pore segment channel 1) | SID315456918 | 2.23 | inactive
TM9SF2 (transmembrane 9 superfamily member 2) | SID315453239 | -0.26 | inactive
TM9SF2 (transmembrane 9 superfamily member 2) | SID315453239 | 1.3 | inactive
TM9SF2 (transmembrane 9 superfamily member 2) | SID315453239 | -0.68 | inactive
TM9SF2 (transmembrane 9 superfamily member 2) | SID315453239 | 0.29 | inactive
ATP9A (ATPase phospholipid transporting 9A) | SID315453801 | 0.14 | inactive
ATP9A (ATPase phospholipid transporting 9A) | SID315453801 | -0.08 | inactive
ATP9A (ATPase phospholipid transporting 9A) | SID315453801 | -0.57 | inactive
ATP9A (ATPase phospholipid transporting 9A) | SID315453801 | -0.04 | inactive
VWA7 (von Willebrand factor A domain containing 7) | SID315459789 | -1.37 | inactive
VWA7 (von Willebrand factor A domain containing 7) | SID315459789 | -1.04 | inactive
VWA7 (von Willebrand factor A domain containing 7) | SID315459789 | -0.89 | inactive
VWA7 (von Willebrand factor A domain containing 7) | SID315459789 | -1 | inactive
AFG3L2 (AFG3 like matrix AAA peptidase subunit 2) | SID315454471 | 0.17 | inactive
AFG3L2 (AFG3 like matrix AAA peptidase subunit 2) | SID315454471 | 1.09 | inactive
AFG3L2 (AFG3 like matrix AAA peptidase subunit 2) | SID315454471 | 0.59 | inactive
AFG3L2 (AFG3 like matrix AAA peptidase subunit 2) | SID315454471 | -0.79 | inactive
KLRG1 (killer cell lectin like receptor G1) | SID315453917 | -1.27 | inactive
KLRG1 (killer cell lectin like receptor G1) | SID315453917 | -1.19 | inactive
KLRG1 (killer cell lectin like receptor G1) | SID315453917 | -1.34 | inactive
KLRG1 (killer cell lectin like receptor G1) | SID315453917 | -0.87 | inactive
TLL2 (tolloid like 2) | SID315451893 | 0.28 | inactive
TLL2 (tolloid like 2) | SID315451893 | 0.62 | inactive
TLL2 (tolloid like 2) | SID315451893 | 0.51 | inactive
TLL2 (tolloid like 2) | SID315451893 | -0.99 | inactive
NMB (neuromedin B) | SID315450260 | 0.29 | inactive
NMB (neuromedin B) | SID315450260 | -0.46 | inactive
NMB (neuromedin B) | SID315450260 | -0.52 | inactive
NMB (neuromedin B) | SID315450260 | 0.83 | inactive
FRS2 (fibroblast growth factor receptor substrate 2) | SID315454386 | -0.11 | inactive
FRS2 (fibroblast growth factor receptor substrate 2) | SID315454386 | -0.17 | inactive
FRS2 (fibroblast growth factor receptor substrate 2) | SID315454386 | -1.39 | inactive
FRS2 (fibroblast growth factor receptor substrate 2) | SID315454386 | -1.41 | inactive
NRL (neural retina leucine zipper) | SID315450312 | -0.24 | inactive
NRL (neural retina leucine zipper) | SID315450312 | 1.4 | inactive
NRL (neural retina leucine zipper) | SID315450312 | 1.16 | inactive
NRL (neural retina leucine zipper) | SID315450312 | 2.08 | inactive
C7 (complement C7) | SID315447622 | -1.17 | inactive
C7 (complement C7) | SID315447622 | 0.37 | inactive
C7 (complement C7) | SID315447622 | -0.31 | inactive
C7 (complement C7) | SID315447622 | 0.4 | inactive
GLRB (glycine receptor beta) | SID315448925 | -0.15 | inactive
GLRB (glycine receptor beta) | SID315448925 | 0.42 | inactive
GLRB (glycine receptor beta) | SID315448925 | -0.33 | inactive
GLRB (glycine receptor beta) | SID315448925 | 0.82 | inactive
EGR2 (early growth response 2) | SID315448463 | -1.5 | inactive
EGR2 (early growth response 2) | SID315448463 | -1.49 | inactive
EGR2 (early growth response 2) | SID315448463 | -1.97 | active
EGR2 (early growth response 2) | SID315448463 | -0.86 | inactive
NSUN7 (NOP2/Sun RNA methyltransferase family member 7) | SID315459419 | 1.63 | inactive
NSUN7 (NOP2/Sun RNA methyltransferase family member 7) | SID315459419 | 1.46 | inactive
NSUN7 (NOP2/Sun RNA methyltransferase family member 7) | SID315459419 | 0.93 | inactive
NSUN7 (NOP2/Sun RNA methyltransferase family member 7) | SID315459419 | 1.32 | inactive
TTYH3 (tweety family member 3) | SID315459786 | -0.09 | inactive
TTYH3 (tweety family member 3) | SID315459786 | 0.5 | inactive
TTYH3 (tweety family member 3) | SID315459786 | -1.06 | inactive
TTYH3 (tweety family member 3) | SID315459786 | -1.11 | inactive
PLA2G2D (phospholipase A2 group IID) | SID315455758 | -1.16 | inactive
PLA2G2D (phospholipase A2 group IID) | SID315455758 | -0.59 | inactive
PLA2G2D (phospholipase A2 group IID) | SID315455758 | -1.39 | inactive
PLA2G2D (phospholipase A2 group IID) | SID315455758 | -1.28 | inactive
CDC42EP3 (CDC42 effector protein 3) | SID315454225 | -0.79 | inactive
CDC42EP3 (CDC42 effector protein 3) | SID315454225 | -0.87 | inactive
CDC42EP3 (CDC42 effector protein 3) | SID315454225 | -0.78 | inactive
CDC42EP3 (CDC42 effector protein 3) | SID315454225 | -0.76 | inactive
FAM193B (family with sequence similarity 193 member B) | SID315457068 | -0.46 | inactive
FAM193B (family with sequence similarity 193 member B) | SID315457068 | 0.84 | inactive
FAM193B (family with sequence similarity 193 member B) | SID315457068 | -0.18 | inactive
FAM193B (family with sequence similarity 193 member B) | SID315457068 | 0.77 | inactive
HAO2 (hydroxyacid oxidase 2) | SID315456534 | 4.75 | active
HAO2 (hydroxyacid oxidase 2) | SID315456534 | 0.45 | inactive
HAO2 (hydroxyacid oxidase 2) | SID315456534 | -0.79 | inactive
HAO2 (hydroxyacid oxidase 2) | SID315456534 | 1.51 | inactive
NPTXR (neuronal pentraxin receptor) | SID315455261 | 2.64 | inactive
NPTXR (neuronal pentraxin receptor) | SID315455261 | 2.1 | inactive
NPTXR (neuronal pentraxin receptor) | SID315455261 | 0.79 | inactive
NPTXR (neuronal pentraxin receptor) | SID315455261 | 1.08 | inactive
SYT7 (synaptotagmin 7) | SID315453014 | 0.51 | inactive
SYT7 (synaptotagmin 7) | SID315453014 | 0.34 | inactive
SYT7 (synaptotagmin 7) | SID315453014 | 0.07 | inactive
SYT7 (synaptotagmin 7) | SID315453014 | 0.54 | inactive
C11orf65 (chromosome 11 open reading frame 65) | SID315462695 | -1.32 | inactive
C11orf65 (chromosome 11 open reading frame 65) | SID315462695 | -0.98 | inactive
C11orf65 (chromosome 11 open reading frame 65) | SID315462695 | -0.82 | inactive
C11orf65 (chromosome 11 open reading frame 65) | SID315462695 | 0.23 | inactive
KCNJ14 (potassium inwardly rectifying channel subfamily J member 14) | SID315449625 | 0.26 | inactive
KCNJ14 (potassium inwardly rectifying channel subfamily J member 14) | SID315449625 | 1.86 | inactive
KCNJ14 (potassium inwardly rectifying channel subfamily J member 14) | SID315449625 | -0.09 | inactive
KCNJ14 (potassium inwardly rectifying channel subfamily J member 14) | SID315449625 | 1.04 | inactive
KCTD15 (potassium channel tetramerization domain containing 15) | SID315459178 | -0.31 | inactive
KCTD15 (potassium channel tetramerization domain containing 15) | SID315459178 | -0.4 | inactive
KCTD15 (potassium channel tetramerization domain containing 15) | SID315459178 | 0.22 | inactive
KCTD15 (potassium channel tetramerization domain containing 15) | SID315459178 | -0.73 | inactive
MAB21L3 (mab-21 like 3) | SID315461730 | 0.15 | inactive
MAB21L3 (mab-21 like 3) | SID315461730 | -0.49 | inactive
MAB21L3 (mab-21 like 3) | SID315461730 | -1.19 | inactive
MAB21L3 (mab-21 like 3) | SID315461730 | -0.65 | inactive
MTAP (methylthioadenosine phosphorylase) | SID315450062 | 0.37 | inactive
MTAP (methylthioadenosine phosphorylase) | SID315450062 | 0.67 | inactive
MTAP (methylthioadenosine phosphorylase) | SID315450062 | 0.45 | inactive
MTAP (methylthioadenosine phosphorylase) | SID315450062 | 0.8 | inactive
ZNF267 (zinc finger protein 267) | SID315453993 | 2.45 | inactive
ZNF267 (zinc finger protein 267) | SID315453993 | -0.02 | inactive
ZNF267 (zinc finger protein 267) | SID315453993 | 0.25 | inactive
ZNF267 (zinc finger protein 267) | SID315453993 | 0.45 | inactive
CCDC144NL (CCDC144A N-terminal like (pseudogene)) | SID315464017 | 0.44 | inactive
CCDC144NL (CCDC144A N-terminal like (pseudogene)) | SID315464017 | -0.91 | inactive
CCDC144NL (CCDC144A N-terminal like (pseudogene)) | SID315464017 | -0.79 | inactive
CCDC144NL (CCDC144A N-terminal like (pseudogene)) | SID315464017 | -0.7 | inactive
CCDC144NL (CCDC144A N-terminal like (pseudogene)) | SID315464017 | 2.11 | inactive
CCDC144NL (CCDC144A N-terminal like (pseudogene)) | SID315464017 | 0.74 | inactive
CCDC144NL (CCDC144A N-terminal like (pseudogene)) | SID315464017 | 2.86 | active
CCDC144NL (CCDC144A N-terminal like (pseudogene)) | SID315464017 | 2.29 | inactive
CALCOCO1 (calcium binding and coiled-coil domain 1) | SID315458530 | -1.5 | inactive
CALCOCO1 (calcium binding and coiled-coil domain 1) | SID315458530 | -0.9 | inactive
CALCOCO1 (calcium binding and coiled-coil domain 1) | SID315458530 | -0.8 | inactive
CALCOCO1 (calcium binding and coiled-coil domain 1) | SID315458530 | -0.7 | inactive
OLIG2 (oligodendrocyte transcription factor 2) | SID315453913 | -1.09 | inactive
OLIG2 (oligodendrocyte transcription factor 2) | SID315453913 | -0.8 | inactive
OLIG2 (oligodendrocyte transcription factor 2) | SID315453913 | -1.33 | inactive
OLIG2 (oligodendrocyte transcription factor 2) | SID315453913 | -0.98 | inactive

Hits, among the entries above:
target | PubChem SID | TNF reporter robust z-score | Outcome
MICOS13 | SID315461673 | -1.69 | active
MICOS13 | SID315461673 | -1.87 | active
MICOS13 | SID315461673 | -2.12 | active
TPCN1 (two pore segment channel 1) | SID315456918 | -1.68 | active
EGR2 (early growth response 2) | SID315448463 | -1.97 | active
HAO2 (hydroxyacid oxidase 2) | SID315456534 | 4.75 | active
CCDC144NL (CCDC144A N-terminal like (pseudogene)) | SID315464017 | 2.86 | active
